Results from PubChem BioAssay AID504467 (National Center for Advancing Translational Sciences (NCATS), 2011).
Among all 330,000 compounds or so, about 7,700 (2.3%) were called active. The inconclusive results got no clear call from the source; some entries with a clear call stand among them for comparison. Calls come from the whole dose curve; as a rule, active = well fitted inhibition curve with a large enough effect; inconclusive = small, poorly fitted or top-dose-only effect, or effect the other way; inactive = flat fitted curve, though single readings scatter. Potencies beside an inconclusive call are fits to weak or partial responses and may not hold up.

Test: qHTS screen for small molecules that inhibit ELG1-dependent DNA repair in human embryonic kidney (HEK293T) cells expressing luciferase-tagged ELG1; note: nearly all actives have a fitted effect of over 55% in size
Conditions: HEK293T ELG1-luciferase reporter, luminescence, 16 h, DNA damage induced by 5-fluorouridine; series mostly up to 46.1 µM
How it was run: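 Reporter activity after DNA damage by 5-fluorouridine is monitored. Compound-treated cells incubate 16 hr at 37 °C, then ONE-Glo is added for 30 min before luminescence reading.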
Potency is the fitted concentration of half-maximal effect.

Row | SMILES | Potency
1 | COc1ccccc1N1CCN(C(CNS(=O)(=O)c2ccc(C)cc2)c2cccnc2)CC1 (stereo not drawn) | inactive
2 | CC1CCc2c(sc(NC(=O)CSc3nnc(-c4ccccc4)o3)c2C#N)C1 (stereo not drawn) | inactive
3 | Cc1onc(NC(=O)c2ccc(Cl)cc2Cl)c1Br | inconclusive: 20.6 µM [activator, partial curve]
4 | COc1ccc(Cn2nnnc2C(c2ccccn2)N2CCN(c3cc(Cl)ccc3C)CC2)cc1 (stereo not drawn) | inconclusive: 18.4 µM [inhibitor, single point]
5 | CCC(C)C(=O)Nc1nccs1 (stereo not drawn) | inconclusive: 20.6 µM [activator, single point]
6 | CN(Cc1nc2ccccc2c(=O)[nH]1)C(=O)c1cccc(S(=O)(=O)N2CCc3ccccc32)c1 | inconclusive: 29.1 µM [activator, single point]
7 | O=C(NC(=S)Nc1ccccc1Br)C1CCCC1 | inconclusive: 14.6 µM [activator, partial curve]
8 | CCN1CCc2nc(N)oc2CC1 | inconclusive: 3.16 µM [activator, full curve, poor fit]
9 | Cc1nc2ccc(NC(=O)NCc3ccco3)cc2s1 | inconclusive: 16.4 µM [activator, partial curve]
10 | Cc1cccc(CSc2nnc(-c3ccco3)n2C)c1 | inconclusive: 16.4 µM [activator, single point]
11 | Cc1ccc(SCCC(=O)N2CCCC2)cc1 | inconclusive: 20.6 µM [activator, partial curve]
12 | COC(=O)[C@@]12CCCN1[C@H](c1ccc(-c3ccc(F)cc3)c(OC)c1)[C@H]1C(=O)N(C)C(=O)[C@H]12 | inactive
13 | CCn1cnc2sc(C(=O)Nc3ccc4c(c3)OCO4)c(C)c2c1=O | inconclusive: 4.61 µM [activator, full curve]
14 | COc1cccc(C(=O)Nc2cc(C)on2)c1OC | inconclusive: 29.1 µM [activator, single point]
15 | C#CCOCCOCCOCCNc1nc(N2CCN(C(=O)CCCCCCCCCCNC(=O)[C@H]([C@@H](C)CC)n3cc(CCCCN=C(N)N)nn3)CC2)nc(N2CCN(C(=O)CCCCCCCCCCNC(=O)[C@@H]([C@H](C)O)n3cc(C)nn3)CC2)n1 | inconclusive: 35.5 µM [inhibitor, single point]
16 | O=C(CSc1ccc(-c2cccs2)nn1)Nc1ccccc1 | inconclusive: 23.1 µM [inhibitor, single point]
17 | COc1ccc(CC(=O)N2N=C(c3ccncc3)CC2(O)C(F)(F)F)cc1 (stereo not drawn) | inconclusive: 4.61 µM [inhibitor, single point]
18 | COC(=O)[C@@]12CCCCN1[C@H](c1ccc(SC3CCCCC3)c(OC)c1)[C@@H]1C(=O)N(C)C(=O)[C@@H]12 | inactive
19 | CN(C)N=Nc1ccc(S(=O)(=O)NC(Cc2ccccc2)C(=O)O)cc1 (stereo not drawn) | inconclusive: 23.1 µM [inhibitor, partial curve, poor fit]
20 | COc1ccc(Br)cc1CNC(=O)c1ccc2c(c1)N(C)CCS2 | inconclusive: 32.6 µM [inhibitor, single point]
21 | Cc1ccc(OCc2ccc(C(=O)Nc3nc4ccccc4n3Cc3ccccc3)o2)c([N+](=O)[O-])c1 | inconclusive: 5.17 µM [inhibitor, partial curve, poor fit]
22 | COc1ccc(C(=O)Nc2ccccc2C(=O)NCc2ccco2)cc1OC | active: 14.6 µM
23 | O=C(c1sccc1Cl)N1CCN(Cc2ccc3c(c2)OCO3)CC1 | active: 20.6 µM

Row | SMILES | Potency
24 | Fc1ccc2nc(Nc3nc4c(s3)CCCC4)sc2c1 | inconclusive: 5.17 µM [activator, partial curve]
25 | O=C1c2ccccc2S(=O)(=O)N1CC(O)Cn1c2ccccc2c2ccccc21 (stereo not drawn) | inconclusive: 15.8 µM [inhibitor, single point]
26 | CCN(CC)S(=O)(=O)c1cccc(NC(=O)c2ccc(Sc3nncn3C)c([N+](=O)[O-])c2)c1 | inconclusive: 10.3 µM [inhibitor, partial curve, poor fit]
27 | CC1CCc2nn(CC(=O)NCCCN3CCCC3=O)cc2C1 (stereo not drawn) | inactive
28 | COc1cc(Cl)c(C)cc1NCC(=O)Nc1cccc(S(=O)(=O)N2CCCC2)c1 | inconclusive: 20.6 µM [inhibitor, single point]
29 | COc1ccc2oc(=O)c(C(C)=O)cc2c1 | inactive
30 | CCSc1ccccc1C(=O)Nc1nc2ccccc2c(=O)[nH]1 | inconclusive: 20.6 µM [inhibitor, single point]
31 | COc1cccc(-n2nnc3c(=O)n(Cc4ccc(C)cc4)cnc32)c1 | inactive
32 | CC1CCN(C(=O)CSc2nc3ccccc3c(=O)n2Cc2ccc3c(c2)OCO3)CC1 | inconclusive: 18.4 µM [inhibitor, single point]
33 | O=C(Nc1ccc2c(c1)OCCO2)Nc1ccc2c(c1)OCO2 | inconclusive: 1.83 µM [activator, partial curve]
34 | COc1ccccc1OCC(=O)NCC1CCCN(Cc2cnn(C(C)C)c2)C1 (stereo not drawn) | inconclusive: 25.9 µM [activator, single point]
35 | COc1cc(/C=N/NC(=O)C(=O)N2CCCCCC2)ccc1O | inactive
36 | N#Cc1ccc(-c2csc(NC3=NCCCCC3)n2)cc1 | inconclusive: 11.6 µM [activator, partial curve]
37 | COc1ccccc1CCNC(=O)c1ccc(Br)s1 | inconclusive: 20.6 µM [activator, single point]
38 | S=C(NCCc1ccccn1)Nc1ccccc1 | inconclusive: 20.6 µM [activator, single point]
39 | CN1CCN(c2ccc(NC(=O)CSc3nnnn3-c3ccccc3Cl)cc2)CC1 | inconclusive: 20.6 µM [activator, partial curve, poor fit]
40 | COc1ccc2c(c1)NC(c1ccc(N(C)C)cc1)c1cccn1-2 (stereo not drawn) | inconclusive: 29.1 µM [inhibitor, single point]
41 | CC(C)OC(=O)c1cccc(C(=O)Oc2ccccc2)n1 | inconclusive: 4.11 µM [activator, single point]
42 | Cc1ccc(C(=O)N[C@@H](C)CN2C3=NC[C@H](C)N3C[C@H]2Cc2ccc(O)cc2)cc1Br | inactive
43 | CCCC(=O)OCC(=O)Nc1ccc(N=Nc2ccccc2)cc1 | inconclusive: 5.17 µM [activator, partial curve]
44 | O=C(CCc1nc(-c2ccccc2)no1)NCC1CCCO1 (stereo not drawn) | inconclusive: 23.1 µM [activator, partial curve, poor fit]
45 | Cc1ccsc1/C=N/N1CCN(c2ccccn2)CC1 | inconclusive: 16.4 µM [activator, partial curve]
46 | CCNc1ccc(C(=O)OCC)cc1NC(=O)c1cccc(N(C)C)c1 | inconclusive: 6.51 µM [inhibitor, single point]

Row | SMILES | Potency
47 | O=[N+]([O-])c1ccccc1/C=N/N1CCN(c2ccccn2)CC1 | inconclusive: 29.1 µM [activator, single point]
48 | C#CCOCCOCCOCCNc1nc(N2CCN(C(=O)[C@H]([C@@H](C)CC)n3cc([C@@H](N)CO)nn3)CC2)nc(N2CCN(C(=O)[C@H](CCCCN)n3cc([C@@H](N)CO)nn3)CC2)n1 | inconclusive: 23.1 µM [activator, single point]
49 | C/C(=N\NC(=S)Nc1cccc(C)c1)c1cccc(N)c1 | inconclusive: 5.17 µM [inhibitor, single point]
50 | c1ccc(-n2ncc3c(NCc4ccco4)ncnc32)cc1 | inconclusive: 14.6 µM [activator, partial curve]
51 | CCCCn1c(N)c(N(CCOC)C(=O)c2ccc(-n3c(C)ccc3C)cc2)c(=O)[nH]c1=O | inconclusive: 32.6 µM [inhibitor, partial curve, poor fit]
52 | O=C1c2cccc([N+](=O)[O-])c2C(=O)N1C1CCCCC1 | inactive
53 | COc1ccc(CNC(=O)COC(=O)CC2CC3CCC2C3)cc1OC (stereo not drawn) | inactive
54 | COc1ccc(-c2sc3cc(OC)c(OC)cc3c2-c2ccc(O)cc2)cc1 | inconclusive: 29.1 µM [inhibitor, single point]
55 | CCOc1ccccc1CNc1nnnn1C | inactive
56 | O=C(CCN1CCCCCC1)c1ccccc1 | inactive
57 | COC(=O)c1ccccc1-c1c2ccc(=N)cc-2oc2cc(N)ccc12 | inactive
58 | CC(=O)Nc1ccc(N=NC2C(=O)N(C(N)=S)N=C2C)cc1 (stereo not drawn) | inconclusive: 18.3 µM [activator, single point]
59 | COc1ccc([N+](=O)[O-])cc1Nc1ncnc2ccccc12 | inactive
60 | O=c1c(S(=O)(=O)c2ccc(Cl)cc2)cn(Cc2cccc(F)c2)c2ccc(F)cc12 | inactive
61 | COCC(C)NC(C(=O)Nc1ccc(Cl)c([N+](=O)[O-])c1)c1ccccc1 (stereo not drawn) | inactive
62 | CCC(=O)Nc1ccc2nc(C3CC3)n(Cc3ccc(C(C)(C)C)cc3)c(=O)c2c1 | inconclusive: 1.3 µM [activator, partial curve]
63 | c1nc(NCc2ccc3c(c2)OCO3)c2cc(-c3ccoc3)ccc2n1 | active: 1.64 µM
64 | O=C(COC(=O)c1ccccc1)Nc1ncc([N+](=O)[O-])s1 | inactive
65 | O=C(Nc1ccc(Br)cc1F)c1sccc1-n1cccc1 | inconclusive: 1.16 µM [inhibitor, single point]
66 | CCOC(=O)COc1cccc2c(=O)n(CC(=O)NCc3ccc(F)cc3)ccc12 | inconclusive: 0.184 µM [inhibitor, full curve]
67 | C/C(N)=C(/C#N)C(=O)CSc1nc2ccccc2c(=O)n1Cc1ccc(C)cc1 | inconclusive: 4.61 µM [inhibitor, full curve]
68 | O=C(Nc1ccc(-n2cnnn2)cc1)c1cc(S(=O)(=O)N2CCCC2)ccc1Cl | inconclusive: 20.6 µM [inhibitor, single point]

An excerpt from above in order of number of heavy atoms, descending.
Row | SMILES | Potency
26 | CCN(CC)S(=O)(=O)c1cccc(NC(=O)c2ccc(Sc3nncn3C)c([N+](=O)[O-])c2)c1 | inconclusive: 10.3 µM [inhibitor, partial curve, poor fit]
17 | COc1ccc(CC(=O)N2N=C(c3ccncc3)CC2(O)C(F)(F)F)cc1 (stereo not drawn) | inconclusive: 4.61 µM [inhibitor, single point]
29 | COc1ccc2oc(=O)c(C(C)=O)cc2c1 | inactive
